Measurements as given in publication PMC11116102, “A naturally occurring variant of SHLP2 is a protective factor in Parkinson’s disease” (Molecular Psychiatry, 2024).

Protein sequences, listed by entry. Tags and fused reporters are not part of them. Residues count along the entry.
UniProt Q3ZCQ8, residues 45-353: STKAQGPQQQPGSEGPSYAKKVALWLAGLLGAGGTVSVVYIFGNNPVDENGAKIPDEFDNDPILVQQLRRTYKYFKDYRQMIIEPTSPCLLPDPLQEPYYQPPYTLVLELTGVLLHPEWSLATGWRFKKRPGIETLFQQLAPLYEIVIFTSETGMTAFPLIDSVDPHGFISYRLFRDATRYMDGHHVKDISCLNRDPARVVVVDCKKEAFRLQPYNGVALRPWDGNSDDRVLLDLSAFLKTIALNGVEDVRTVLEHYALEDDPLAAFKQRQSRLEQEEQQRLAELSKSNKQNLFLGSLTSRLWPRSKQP

T1: Small Humanin-like Peptide 2 (SHLP2), synthetic peptide (human)
T1 sequence (peptide): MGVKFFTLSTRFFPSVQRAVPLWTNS


Molecular target: T1, Small Humanin-like Peptide 2 (SHLP2), synthetic peptide (human)
Experiment: affinity purification with mass spectrometry; SHLP2 peptide (control: scrambled peptide) pre-immobilized on agarose beads (CarboxyLink kit); 1.6-1.9 mg of HEK293 mitochondrial protein extract (0.1% NP-40 lysis buffer) incubated in the column at 4 C overnight; eluate analysed by mass spectrometry; only the target purified

Molecule	binding
Tim50 (from UniProt Q3ZCQ8 45-353)	binds
Timm9 (protein, UniProt Q9Y5J7 1-89) MAAQIPESDQIKQFKEFLGTYNKLTETCFLDCVKDFTTREVKPEETTCSEHCLQKYLKMTQRISMRFQEYHIQQNEALAAKAGLLGQPR	binds
Timm10 (protein, UniProt P62072 1-90) MDPLRAQQLAAELEVEMMADMYNRMTSACHRKCVPPHYKEAELSKGESVCLDRCVSKYLDIHERMGKKLTELSMQDEELMKRVQQSSGPA	binds
Timm10B (protein, UniProt Q9Y5J6 1-103) MERQQQQQQQLRNLRDFLLVYNRMTELCFQRCVPSLHHRALDAEEEACLHSCAGKLIHSNHRLMAAYVQLMPALVQRRIADYEAASAVPGVAAEQPGVSPSGS	binds

No constants are given. Whether binding was seen depends on the method and setting. In cells and extracts the contact can be indirect. A yes stands for co-enrichment or nearness to the bait. Other partners may have been found.
